Measurements: PMC10903759 (Journal of Genetic Engineering & Biotechnology, 2024)

Tested on: leaf rust (Puccinia triticina, CCDS-96-14-1 isolate) urediniospores
Assay type: cell-based

In the case of “AQRCGDQARGAKCPNCLCCGKYGFCGSGDAYCGAGSCQSQCRGC [WAMP-1a]”, the “germination rate of urediniospores” value is reported as 87.63 % ± 0.90.
